Results are given in words; binding and its absence hold for the method and conditions named. In cells and extracts the contact can be indirect. Some results given as binding are weak or reduced against the parent protein; the word gives no strength.
Biological target: T1, UCHL3, P15374
T1 chain: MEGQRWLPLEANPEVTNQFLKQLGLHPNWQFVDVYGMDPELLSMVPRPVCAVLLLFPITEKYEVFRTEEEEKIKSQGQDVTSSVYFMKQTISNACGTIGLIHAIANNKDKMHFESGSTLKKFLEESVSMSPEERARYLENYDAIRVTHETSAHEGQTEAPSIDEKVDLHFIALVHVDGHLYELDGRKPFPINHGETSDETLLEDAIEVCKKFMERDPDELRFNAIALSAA
Assay: co-IP; HEK293 cells treated with farrerol; lysis in RIPA buffer, antibodies and Protein A/G-agarose beads at 4 °C, five washes with RIPA buffer, western blot
Conditions: remark: other sources report otherwise

B1: RAD51, Q06609 1-339 (protein)
chain: MAMQMQLEANADTSVEEESFGPQPISRLEQCGINANDVKKLEEAGFHTVEAVAYAPKKELINIKGISEAKADKILAEAAKLVPMGFTTATEFHQRRSEIIQITTGSKELDKLLQGGIETGSITEMFGEFRTGKTQICHTLAVTCQLPIDRGGGEGKAMYIDTEGTFRPERLLAVAERYGLSGSDVLDNVAYARAFNTDHQTQLLYQASAMMVESRYALLIVDSATALYRTDYSGRGELSARQMHLARFLRMLLRLADEFGVAVVITNQVVAQVDGAAMFAADPKKPIGGNIIAHASTTRLYLRKGRGETRICKIYDSPCLPEAEAMFAINADGVGDAKD
Q: B1 was tested. Which binding did it give?
A: binds
